Assay results reported in the supplement of paper PMC10849652.
The list shows a part of the results.

Protein sequences, listed by entry. Tags and fused reporters are not part of them. Lines headed by an entry give the natural chain unless they say otherwise; changes in a name come on top.
UniProt Q5T1C6: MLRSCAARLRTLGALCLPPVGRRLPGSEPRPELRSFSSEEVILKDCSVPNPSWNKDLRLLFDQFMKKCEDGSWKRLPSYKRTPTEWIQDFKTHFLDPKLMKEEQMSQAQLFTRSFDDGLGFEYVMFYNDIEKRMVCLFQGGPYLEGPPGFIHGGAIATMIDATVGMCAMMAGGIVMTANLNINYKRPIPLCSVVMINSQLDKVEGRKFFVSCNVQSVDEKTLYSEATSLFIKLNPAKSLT
UniProt Q14186: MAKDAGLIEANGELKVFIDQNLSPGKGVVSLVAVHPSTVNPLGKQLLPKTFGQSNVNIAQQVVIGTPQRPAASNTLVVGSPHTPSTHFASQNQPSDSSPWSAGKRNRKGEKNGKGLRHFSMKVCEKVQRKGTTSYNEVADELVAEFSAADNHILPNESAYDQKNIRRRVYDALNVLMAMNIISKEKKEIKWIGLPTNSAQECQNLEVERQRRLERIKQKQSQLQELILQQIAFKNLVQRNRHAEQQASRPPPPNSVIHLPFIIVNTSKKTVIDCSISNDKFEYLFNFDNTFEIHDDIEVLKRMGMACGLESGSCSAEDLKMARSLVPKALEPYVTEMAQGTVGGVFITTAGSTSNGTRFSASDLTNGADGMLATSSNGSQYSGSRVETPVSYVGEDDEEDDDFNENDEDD
UniProt Q9ULP9: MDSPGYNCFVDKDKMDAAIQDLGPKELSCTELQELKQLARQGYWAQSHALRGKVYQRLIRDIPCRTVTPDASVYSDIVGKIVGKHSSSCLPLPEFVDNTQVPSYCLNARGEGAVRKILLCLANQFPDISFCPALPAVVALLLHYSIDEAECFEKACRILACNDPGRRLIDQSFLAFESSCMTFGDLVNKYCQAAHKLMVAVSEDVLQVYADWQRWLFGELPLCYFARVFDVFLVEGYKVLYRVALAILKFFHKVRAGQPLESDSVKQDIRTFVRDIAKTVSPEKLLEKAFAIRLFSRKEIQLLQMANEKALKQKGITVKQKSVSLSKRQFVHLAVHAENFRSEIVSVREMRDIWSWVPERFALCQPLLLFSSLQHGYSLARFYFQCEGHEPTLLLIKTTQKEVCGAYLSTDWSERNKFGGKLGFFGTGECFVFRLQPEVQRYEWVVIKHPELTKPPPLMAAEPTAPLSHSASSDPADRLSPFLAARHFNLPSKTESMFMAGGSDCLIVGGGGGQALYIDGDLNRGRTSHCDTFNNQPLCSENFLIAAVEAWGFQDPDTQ
UniProt P62072: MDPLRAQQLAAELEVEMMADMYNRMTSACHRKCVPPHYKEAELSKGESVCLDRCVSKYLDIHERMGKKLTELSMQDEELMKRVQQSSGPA
UniProt Q6YHU6: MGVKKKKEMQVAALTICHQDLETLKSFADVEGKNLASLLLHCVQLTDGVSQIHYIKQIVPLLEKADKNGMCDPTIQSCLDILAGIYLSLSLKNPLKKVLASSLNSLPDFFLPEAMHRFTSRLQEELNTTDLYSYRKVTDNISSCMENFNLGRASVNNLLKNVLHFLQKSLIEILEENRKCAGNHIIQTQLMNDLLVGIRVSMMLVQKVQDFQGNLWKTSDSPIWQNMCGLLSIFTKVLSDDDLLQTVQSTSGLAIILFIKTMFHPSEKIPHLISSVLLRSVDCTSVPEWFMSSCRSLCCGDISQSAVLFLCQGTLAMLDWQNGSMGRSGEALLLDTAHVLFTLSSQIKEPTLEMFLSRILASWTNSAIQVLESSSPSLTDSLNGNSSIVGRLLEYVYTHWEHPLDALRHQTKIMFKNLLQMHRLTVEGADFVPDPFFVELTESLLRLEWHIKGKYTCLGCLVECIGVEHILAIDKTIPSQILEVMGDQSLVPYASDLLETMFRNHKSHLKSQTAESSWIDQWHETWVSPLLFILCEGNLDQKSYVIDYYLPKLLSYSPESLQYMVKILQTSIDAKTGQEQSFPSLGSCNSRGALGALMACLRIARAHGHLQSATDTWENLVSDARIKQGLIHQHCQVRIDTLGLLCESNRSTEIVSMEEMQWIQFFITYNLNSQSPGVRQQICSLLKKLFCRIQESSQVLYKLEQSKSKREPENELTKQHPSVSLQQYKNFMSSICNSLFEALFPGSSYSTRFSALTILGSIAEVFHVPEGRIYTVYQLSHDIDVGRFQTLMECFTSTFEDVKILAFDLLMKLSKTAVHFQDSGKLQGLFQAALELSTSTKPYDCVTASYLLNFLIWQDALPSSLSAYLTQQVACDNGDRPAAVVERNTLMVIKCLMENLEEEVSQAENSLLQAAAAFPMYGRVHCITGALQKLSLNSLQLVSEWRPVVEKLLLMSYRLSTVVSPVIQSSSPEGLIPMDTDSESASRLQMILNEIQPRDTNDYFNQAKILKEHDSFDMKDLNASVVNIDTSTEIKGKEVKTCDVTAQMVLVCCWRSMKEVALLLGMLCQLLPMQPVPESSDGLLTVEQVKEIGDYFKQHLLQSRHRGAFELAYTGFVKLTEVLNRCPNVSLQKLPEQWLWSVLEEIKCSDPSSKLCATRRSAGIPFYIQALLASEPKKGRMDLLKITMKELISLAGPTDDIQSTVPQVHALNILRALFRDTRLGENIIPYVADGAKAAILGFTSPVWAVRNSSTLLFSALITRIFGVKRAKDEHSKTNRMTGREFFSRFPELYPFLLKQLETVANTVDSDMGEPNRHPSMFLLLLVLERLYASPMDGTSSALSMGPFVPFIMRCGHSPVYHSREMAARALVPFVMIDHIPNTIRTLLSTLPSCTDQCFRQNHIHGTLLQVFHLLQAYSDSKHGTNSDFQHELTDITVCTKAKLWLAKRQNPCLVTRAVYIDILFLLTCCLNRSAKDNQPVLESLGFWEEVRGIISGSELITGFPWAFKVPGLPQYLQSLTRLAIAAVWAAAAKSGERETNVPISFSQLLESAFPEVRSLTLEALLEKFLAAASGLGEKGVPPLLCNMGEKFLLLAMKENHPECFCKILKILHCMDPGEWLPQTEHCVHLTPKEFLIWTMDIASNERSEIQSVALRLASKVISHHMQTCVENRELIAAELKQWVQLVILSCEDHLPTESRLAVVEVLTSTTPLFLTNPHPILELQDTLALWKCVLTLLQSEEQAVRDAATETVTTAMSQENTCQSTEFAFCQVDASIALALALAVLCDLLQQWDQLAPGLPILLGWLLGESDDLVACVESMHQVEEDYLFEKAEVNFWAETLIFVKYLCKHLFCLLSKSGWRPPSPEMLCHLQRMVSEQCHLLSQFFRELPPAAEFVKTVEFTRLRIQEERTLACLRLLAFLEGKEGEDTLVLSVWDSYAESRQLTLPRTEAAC
UniProt Q9Y4P3: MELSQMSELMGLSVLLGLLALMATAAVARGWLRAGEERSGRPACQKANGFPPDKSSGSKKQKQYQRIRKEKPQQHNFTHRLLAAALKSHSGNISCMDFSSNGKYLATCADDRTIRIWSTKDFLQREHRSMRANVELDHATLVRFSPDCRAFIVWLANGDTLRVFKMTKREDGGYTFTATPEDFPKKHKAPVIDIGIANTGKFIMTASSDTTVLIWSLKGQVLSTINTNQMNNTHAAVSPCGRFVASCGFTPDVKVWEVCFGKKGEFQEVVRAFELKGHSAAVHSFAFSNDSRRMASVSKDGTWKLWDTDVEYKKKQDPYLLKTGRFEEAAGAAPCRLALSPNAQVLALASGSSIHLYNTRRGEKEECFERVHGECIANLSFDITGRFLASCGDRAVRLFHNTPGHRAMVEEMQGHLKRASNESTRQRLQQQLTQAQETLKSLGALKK
UniProt O43493: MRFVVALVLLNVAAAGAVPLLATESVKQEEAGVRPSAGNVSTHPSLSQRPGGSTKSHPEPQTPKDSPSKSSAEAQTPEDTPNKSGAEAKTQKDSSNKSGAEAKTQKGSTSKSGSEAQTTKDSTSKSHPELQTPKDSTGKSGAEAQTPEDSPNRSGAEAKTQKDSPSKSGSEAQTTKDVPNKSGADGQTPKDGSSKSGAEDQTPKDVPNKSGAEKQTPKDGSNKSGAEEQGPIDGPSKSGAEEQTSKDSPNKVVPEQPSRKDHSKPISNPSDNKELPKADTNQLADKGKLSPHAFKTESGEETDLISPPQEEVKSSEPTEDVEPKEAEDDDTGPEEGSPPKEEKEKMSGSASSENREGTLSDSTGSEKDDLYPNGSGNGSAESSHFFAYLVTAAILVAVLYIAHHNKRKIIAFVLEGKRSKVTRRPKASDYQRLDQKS
UniProt Q9Y4R8, whole entry, looked up: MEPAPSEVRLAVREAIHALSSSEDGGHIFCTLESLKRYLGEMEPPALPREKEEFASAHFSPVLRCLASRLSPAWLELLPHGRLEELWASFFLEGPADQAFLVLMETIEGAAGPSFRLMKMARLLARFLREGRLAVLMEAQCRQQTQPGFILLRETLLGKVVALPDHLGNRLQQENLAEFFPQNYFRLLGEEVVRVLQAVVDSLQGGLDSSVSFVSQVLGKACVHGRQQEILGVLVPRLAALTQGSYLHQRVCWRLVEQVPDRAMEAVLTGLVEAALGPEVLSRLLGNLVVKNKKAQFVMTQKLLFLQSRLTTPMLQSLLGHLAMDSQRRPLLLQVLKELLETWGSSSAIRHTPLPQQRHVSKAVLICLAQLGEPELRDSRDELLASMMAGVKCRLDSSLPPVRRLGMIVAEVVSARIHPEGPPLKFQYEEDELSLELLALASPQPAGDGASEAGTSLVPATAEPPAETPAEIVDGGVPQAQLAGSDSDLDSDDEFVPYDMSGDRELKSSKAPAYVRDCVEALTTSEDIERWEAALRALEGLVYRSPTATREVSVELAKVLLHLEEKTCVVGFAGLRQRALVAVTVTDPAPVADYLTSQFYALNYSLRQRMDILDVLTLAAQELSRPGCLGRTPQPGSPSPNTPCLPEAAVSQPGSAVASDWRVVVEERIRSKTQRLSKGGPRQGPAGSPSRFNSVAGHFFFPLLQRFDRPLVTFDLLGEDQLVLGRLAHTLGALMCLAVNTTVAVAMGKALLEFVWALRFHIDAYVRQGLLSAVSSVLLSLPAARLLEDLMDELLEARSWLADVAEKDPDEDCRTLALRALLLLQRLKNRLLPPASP
UniProt Q12788: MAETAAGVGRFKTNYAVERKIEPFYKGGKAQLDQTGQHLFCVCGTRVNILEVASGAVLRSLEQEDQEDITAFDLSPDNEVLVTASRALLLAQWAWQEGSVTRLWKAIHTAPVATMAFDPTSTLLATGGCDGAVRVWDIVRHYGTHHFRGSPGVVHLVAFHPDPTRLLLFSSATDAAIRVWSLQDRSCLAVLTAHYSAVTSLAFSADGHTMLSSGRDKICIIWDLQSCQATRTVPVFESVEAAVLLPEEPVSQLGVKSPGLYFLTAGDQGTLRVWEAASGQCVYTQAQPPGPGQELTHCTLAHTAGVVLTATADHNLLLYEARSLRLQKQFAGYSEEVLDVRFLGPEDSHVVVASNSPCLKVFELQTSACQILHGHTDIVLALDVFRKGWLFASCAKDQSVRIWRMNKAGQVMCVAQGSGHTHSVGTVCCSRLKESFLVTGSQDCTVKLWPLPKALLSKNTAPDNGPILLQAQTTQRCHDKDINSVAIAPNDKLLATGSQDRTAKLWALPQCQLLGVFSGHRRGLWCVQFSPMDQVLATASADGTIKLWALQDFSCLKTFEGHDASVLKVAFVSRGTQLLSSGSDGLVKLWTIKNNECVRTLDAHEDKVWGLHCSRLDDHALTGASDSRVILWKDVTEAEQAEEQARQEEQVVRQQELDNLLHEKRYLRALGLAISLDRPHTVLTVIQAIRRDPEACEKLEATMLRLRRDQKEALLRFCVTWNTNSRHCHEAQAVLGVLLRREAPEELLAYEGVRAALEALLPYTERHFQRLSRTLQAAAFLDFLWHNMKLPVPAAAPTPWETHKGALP
UniProt Q99081: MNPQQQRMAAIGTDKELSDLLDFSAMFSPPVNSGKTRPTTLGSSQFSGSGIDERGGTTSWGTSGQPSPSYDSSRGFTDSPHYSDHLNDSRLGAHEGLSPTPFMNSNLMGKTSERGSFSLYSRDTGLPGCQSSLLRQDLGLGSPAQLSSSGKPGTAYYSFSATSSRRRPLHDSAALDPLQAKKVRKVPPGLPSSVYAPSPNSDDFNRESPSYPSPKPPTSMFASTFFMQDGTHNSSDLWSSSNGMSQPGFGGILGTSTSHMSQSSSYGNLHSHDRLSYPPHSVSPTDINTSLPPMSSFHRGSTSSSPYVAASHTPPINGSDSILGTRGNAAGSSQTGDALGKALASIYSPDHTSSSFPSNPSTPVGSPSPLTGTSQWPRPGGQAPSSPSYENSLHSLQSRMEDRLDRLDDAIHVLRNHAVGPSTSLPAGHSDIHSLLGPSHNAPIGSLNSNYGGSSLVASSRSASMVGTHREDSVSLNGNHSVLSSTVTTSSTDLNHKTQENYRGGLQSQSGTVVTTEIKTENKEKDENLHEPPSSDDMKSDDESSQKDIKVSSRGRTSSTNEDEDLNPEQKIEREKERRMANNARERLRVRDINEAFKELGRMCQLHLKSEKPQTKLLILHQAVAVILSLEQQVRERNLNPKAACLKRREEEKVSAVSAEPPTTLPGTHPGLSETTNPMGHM

Tests used:
Assay in all cases: log2 fold change, soluble protein after heating vs DMSO (PISA); higher = thermal stabilisation; K562 cells, 10 uM, 30 min; active = over 0.2 and 3.5 SD of the protein, either way, in both replicates (recomputed)
[1] = compound: CC[C@@H]1C(=O)N(C)c2cnc(Nc3ccc(C(=O)NC4CCN(C)CC4)cc3OC)nc2N1C1CCCC1
Method in brief: (§1)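 Thermal stability values are relative to control samples and come from duplicates. They are expressed as log2 fold changes. For measurement, K562 cells (2×10^6 cells/mL) received 10 μM compound for 30 min, and aliquots were heated for 3 min over 48°C-58°C, pooled, and extracted at 4°C in PBS with 0.5% NP-40. Soluble protein, the supernatant after 21,000xg for 90 min, was quantified by TMTpro 16plex LC-MS/MS with equalised channel sums.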

volasertib = compound: CC[C@@H]1C(=O)N(C)c2cnc(Nc3ccc(C(=O)N[C@H]4CC[C@H](N5CCN(CC6CC6)CC5)CC4)cc3OC)nc2N1C(C)C [volasertib]
Method in brief: as §1

[2] = compound: CC[C@H](C)N1C=C(C2=C(C=C(C=C21)C3=CN=C(C=C3)N4CCNCC4)C(=O)NCC5=C(C=C(NC5=O)C)C)C
Method in brief: as §1

epoxomicin = compound: CC[C@H](C)[C@@H](C(=O)N[C@@H]([C@@H](C)O)C(=O)N[C@@H](CC(C)C)C(=O)[C@]1(CO1)C)NC(=O)[C@H]([C@@H](C)CC)N(C)C(=O)C [epoxomicin]
Method in brief: as §1

[3] = compound: CCn1c(C(=O)N(C2CC2)C2CC2)cc2c3c(ncn3C)c(Nc3cc(C)n(C)n3)nc21
Method in brief: as §1

[4] = compound: CCn1cc(-c2ccnc3[nH]c(-c4cccc(CN(C)C)c4)cc23)c(-c2ccc(NC(=O)N(C)C)cc2)n1
Method in brief: as §1

[5] = compound: CN(C)CC(=O)Nc1ccc2[nH]c(=O)c3ccccc3c2c1
Method in brief: as §1

rosiglitazone = compound: CN(CCOC1=CC=C(C=C1)C[C@H]2C(=O)NC(=O)S2)C3=CC=CC=N3 (racemic) [rosiglitazone]
Method in brief: as §1

[6] = compound: CN1C2=C(C3=C1C(=O)N(N=C3)CC4=CC(=CC=C4)N)SC(=C2)S(=O)C
Method in brief: as §1

[7] = compound: CN1CCC(CNc2ccc3ncc(-c4cccc(OC(F)(F)F)c4)n3n2)CC1
Method in brief: as §1

saracatinib = compound: CN1CCN(CCOc2cc(OC3CCOCC3)c3c(Nc4c(Cl)ccc5c4OCO5)ncnc3c2)CC1 [saracatinib]
Method in brief: as §1

sotrastaurin = compound: CN1CCN(c2nc(C3=C(c4c[nH]c5ccccc45)C(=O)NC3=O)c3ccccc3n2)CC1 [sotrastaurin]
Method in brief: as §1

alvocidib = compound: CN1CC[C@H](c2c(O)cc(O)c3c(=O)cc(-c4ccccc4Cl)oc23)[C@H](O)C1 [alvocidib]
Method in brief: as §1

Tubastatin A = compound: CN1CCc2c(c3ccccc3n2Cc2ccc(C(=O)NO)cc2)C1 [Tubastatin A]
Method in brief: as §1

[8] = compound: CNC(=O)C1=CC=CC=C1NC2=NC(=NC=C2Cl)NC3=C(C=C(C=C3)N4CCOCC4)OC
Method in brief: as §1

defactinib = compound: CNC(=O)c1ccc(Nc2ncc(C(F)(F)F)c(NCc3nccnc3N(C)S(C)(=O)=O)n2)cc1 [defactinib]
Method in brief: as §1

rucaparib = compound: CNCc1ccc(-c2[nH]c3cc(F)cc4c3c2CCNC4=O)cc1 [rucaparib]
Method in brief: as §1

[9] = compound: CNc1nc(-c2ccc3c(N)n[nH]c3c2)cc(N2C[C@@H](C(=O)NC3CCCCC3)CC[C@H]2C)n1
Method in brief: as §1

encorafenib = compound: COC(=O)N[C@@H](C)CNc1nccc(-c2cn(C(C)C)nc2-c2cc(Cl)cc(NS(C)(=O)=O)c2F)n1 [encorafenib]
Method in brief: as §1

[10] = compound: COC(=O)[C@H](CCSC)NC(=O)C1=C(C=C(C=C1)NC[C@H](CS)N)C2=CC=CC=C2
Method in brief: as §1

Target	log2 fold change [1]	log2 fold change (volasertib)	log2 fold change [2]	log2 fold change (epoxomicin)	log2 fold change [3]	log2 fold change [4]	log2 fold change [5]	log2 fold change (rosiglitazone)	log2 fold change [6]	log2 fold change [7]	log2 fold change (saracatinib)	log2 fold change (sotrastaurin)	log2 fold change (alvocidib)	log2 fold change (Tubastatin A)	log2 fold change [8]	log2 fold change (defactinib)	log2 fold change (rucaparib)	log2 fold change [9]	log2 fold change (encorafenib)	log2 fold change [10]
THEM4 (UniProt Q5T1C6)	inactive: 0.067	inactive: 0.163	inactive: 0.002	inactive: -0.019	inactive: 0.008	inactive: -0.029	inactive: -0.005	inactive: 0.007	inactive: -0.059	inactive: 0.026	inactive: 0.066	inactive: 0.05	inactive: 0.012	inactive: -0.028	inactive: 0.065	inactive: -0.025	inactive: 0.011	inactive: -0.069	inactive: -0.016	inactive: 0.075
TFDP1 (UniProt Q14186)	inactive: -0.003	inactive: -0.117	inactive: 0.011	inactive: 0.081	inactive: 0.137	inactive: -0.041	inactive: 0.069	inactive: 0.026	–	inactive: 0.01	–	inactive: -0.157	–	inactive: -0.099	inactive: -0.019	inactive: -0.184	inactive: 0.037	–	inactive: 0	inactive: -0.088
TBC1D24 (UniProt Q9ULP9)	inactive: 0.025	inactive: -0.028	inactive: 0.05	inactive: -0.011	–	inactive: -0.175	inactive: 0.018	–	inactive: -0.067	inactive: -0.236	inactive: -0.025	inactive: -0.016	active: -0.379	inactive: -0.044	inactive: -0.075	inactive: -0.106	inactive: -0.148	inactive: 0.077	inactive: -0.011	inactive: -0.005
THEM6 (UniProt Q8WUY1)	inactive: -0.035	inactive: 0.022	inactive: -0.053	inactive: -0.03	inactive: 0.071	inactive: 0.037	inactive: 0.062	inactive: 0.003	inactive: -0.058	inactive: -0.024	inactive: 0.013	inactive: 0.041	inactive: -0.017	inactive: -0.074	inactive: -0.001	inactive: -0.016	inactive: 0.013	inactive: 0.002	inactive: -0.043	inactive: 0.018
TIMM10 (UniProt P62072)	inactive: 0.029	inactive: 0.052	inactive: -0.023	inactive: 0.032	–	inactive: 0.006	inactive: -0.046	–	inactive: -0.074	inactive: 0.14	inactive: -0.058	inactive: 0.018	–	inactive: -0.027	inactive: -0.015	inactive: -0.073	inactive: -0.062	inactive: 0.039	inactive: -0.013	inactive: 0.002
TIMM50 isoform 2 (UniProt Q3ZCQ8)	inactive: 0.029	inactive: -0.158	inactive: 0.021	inactive: 0.035	inactive: -0.004	inactive: -0.008	inactive: 0.009	inactive: 0.02	inactive: -0.031	inactive: 0.121	inactive: -0.028	inactive: 0.075	inactive: -0.042	inactive: 0.033	inactive: -0.016	inactive: -0.048	inactive: 0.008	inactive: 0.039	inactive: -0.013	inactive: -0.027
THADA (UniProt Q6YHU6)	inactive: -0.003	inactive: -0.017	inactive: 0.011	inactive: -0.007	–	inactive: 0.057	inactive: 0.051	–	inactive: -0.019	inactive: -0.146	inactive: 0	inactive: -0.104	–	inactive: 0.073	inactive: -0.036	inactive: -0.079	inactive: -0.017	inactive: 0.047	inactive: 0.09	inactive: -0.014
TBL2 (UniProt Q9Y4P3)	inactive: 0.073	inactive: 0.026	inactive: 0.086	inactive: -0.238	inactive: -0.051	inactive: 0.056	inactive: -0.039	inactive: -0.032	inactive: 0.134	inactive: 0.142	inactive: -0.074	inactive: -0.009	inactive: 0.155	inactive: 0.035	inactive: 0.039	inactive: 0.172	inactive: 0.348	inactive: 0.088	inactive: 0.124	inactive: -0.002
TGOLN2 isoform 7 (UniProt O43493)	inactive: 0.021	inactive: 0.081	inactive: -0.06	inactive: 0.008	inactive: 0.011	inactive: -0.025	inactive: -0.047	inactive: -0.049	inactive: -0.018	inactive: -0.008	inactive: -0.045	inactive: 0.046	inactive: 0.001	inactive: -0.012	inactive: 0.015	inactive: -0.001	inactive: -0.034	inactive: -0.025	inactive: -0.069	inactive: 0.037
THBS1 (UniProt P07996)	inactive: -0.108	inactive: -0.004	inactive: -0.135	inactive: -0.328	inactive: -0.038	inactive: 0.009	inactive: -0.06	inactive: 0.13	inactive: 0.268	inactive: 0.039	inactive: 0.127	inactive: 0.185	inactive: 0.066	inactive: -0.068	inactive: -0.039	inactive: 0.03	inactive: -0.193	inactive: -0.076	inactive: -0.04	inactive: 0.1
TBC1D5 isoform 2 (UniProt Q92609)	active: -0.397	active: -0.854	inactive: 0.113	inactive: 0.069	–	inactive: -0.016	inactive: 0.039	–	inactive: 0.021	active: -0.375	inactive: -0.033	inactive: -0.169	–	inactive: -0.036	inactive: -0.013	inactive: -0.088	inactive: 0.015	inactive: -0.159	inactive: 0.119	inactive: -0.055
TELO2 (UniProt Q9Y4R8)	inactive: -0.083	active: -0.359	inactive: -0.017	inactive: -0.093	–	inactive: 0.005	inactive: 0.123	–	inactive: 0.154	inactive: -0.052	inactive: -0.05	inactive: -0.211	–	inactive: -0.004	inactive: 0.03	inactive: -0.019	inactive: 0.2	inactive: 0.145	inactive: 0.049	inactive: -0.057
TBL3 (UniProt Q12788)	inactive: 0.099	inactive: 0.018	inactive: -0.049	inactive: -0.116	inactive: -0.094	inactive: 0.036	inactive: -0.045	inactive: 0.001	inactive: 0.14	inactive: 0.216	inactive: -0.042	inactive: 0.044	inactive: 0.033	inactive: 0.048	inactive: -0.007	inactive: 0.069	inactive: 0.198	inactive: 0.12	inactive: 0.112	inactive: -0.034
TKT, A0A0B4J1R6	inactive: 0.256	inactive: -0.108	inactive: -0.183	inactive: -0.308	inactive: -0.02	–	inactive: -0.172	inactive: -0.067	inactive: -0.017	–	inactive: 0.036	inactive: 0.142	inactive: 0.052	inactive: 0.096	inactive: -0.123	inactive: 0.002	inactive: -0.386	inactive: -0.065	inactive: 0.155	inactive: 0.043
TBL1X (UniProt O60907)	inactive: 0.041	inactive: -0.023	inactive: -0.029	inactive: 0.038	inactive: 0.004	inactive: -0.122	inactive: 0	inactive: 0.021	inactive: -0.054	inactive: -0.047	inactive: 0.001	inactive: 0.028	inactive: 0.017	inactive: -0.063	inactive: -0.001	inactive: 0.012	inactive: -0.046	inactive: -0.005	inactive: 0.017	inactive: 0.005
TCF12 isoform 3 (UniProt Q99081)	inactive: -0.023	inactive: -0.13	inactive: 0.092	inactive: 0.108	inactive: -0.166	inactive: 0.102	inactive: 0.028	inactive: -0.011	inactive: 0.053	inactive: -0.064	inactive: 0.028	inactive: -0.031	inactive: -0.126	inactive: 0.048	inactive: 0.042	inactive: -0.034	inactive: 0.057	inactive: 0.01	inactive: 0.029	inactive: -0.017
TGM2 (UniProt P21980)	inactive: 0.013	inactive: -0.021	inactive: 0.004	inactive: 0.014	inactive: 0.01	inactive: -0.023	inactive: -0.014	inactive: 0.022	inactive: -0.079	inactive: -0.057	inactive: 0.019	inactive: 0.024	inactive: -0.032	inactive: -0.031	inactive: -0.065	inactive: -0.018	inactive: -0.028	inactive: -0.016	inactive: 0.005	inactive: 0.003

Part of the list above, set out differently.
Target | log2 fold change [1] | log2 fold change (volasertib) | log2 fold change [2] | log2 fold change (epoxomicin) | log2 fold change [3] | log2 fold change [4] | log2 fold change [5] | log2 fold change (rosiglitazone) | log2 fold change [6] | log2 fold change [7] | log2 fold change (saracatinib) | log2 fold change (sotrastaurin) | log2 fold change (alvocidib) | log2 fold change (Tubastatin A) | log2 fold change [8] | log2 fold change (defactinib) | log2 fold change (rucaparib) | log2 fold change [9] | log2 fold change (encorafenib) | log2 fold change [10]
TIMM50 isoform 2 (UniProt Q3ZCQ8) | inactive: 0.029 | inactive: -0.158 | inactive: 0.021 | inactive: 0.035 | inactive: -0.004 | inactive: -0.008 | inactive: 0.009 | inactive: 0.02 | inactive: -0.031 | inactive: 0.121 | inactive: -0.028 | inactive: 0.075 | inactive: -0.042 | inactive: 0.033 | inactive: -0.016 | inactive: -0.048 | inactive: 0.008 | inactive: 0.039 | inactive: -0.013 | inactive: -0.027
THADA (UniProt Q6YHU6) | inactive: -0.003 | inactive: -0.017 | inactive: 0.011 | inactive: -0.007 | – | inactive: 0.057 | inactive: 0.051 | – | inactive: -0.019 | inactive: -0.146 | inactive: 0 | inactive: -0.104 | – | inactive: 0.073 | inactive: -0.036 | inactive: -0.079 | inactive: -0.017 | inactive: 0.047 | inactive: 0.09 | inactive: -0.014
